Four substances from patent US20040132971A1 can be followed below.

These are yes or no findings as the source states them, for the method shown. Binding calls can cover weak binding; strength is not graded here.

The test addresses T1, soluble RANKL (human RANKL amino acid residues 158-316) (human) (UniProt O14788).
T1 sequence (looked up): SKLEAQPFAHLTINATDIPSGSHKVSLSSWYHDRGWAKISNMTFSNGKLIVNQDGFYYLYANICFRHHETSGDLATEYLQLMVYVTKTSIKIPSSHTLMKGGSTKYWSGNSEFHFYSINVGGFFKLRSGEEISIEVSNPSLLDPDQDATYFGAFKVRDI
In words: Kd for RANKL by the kinetic analysis of Example 7 (flow cytometry on displayed variants or SPR; not specified). A general note: Flow cytometry measures light scatter and fluorescence of single cells or particles in a stream.

As for K108M,R111W-hOPG(22-194) (receptor), the binding entry is recorded as “binds”.

On to R111W-hOPG(22-194) (receptor), for which the binding entry was “binds”.

For T71A,K108N-hOPG(22-194) (receptor), the binding entry is recorded as “binds”.

As to T154L-hOPG(22-194) (receptor), the binding entry is recorded as “binds”.
